In PubChem BioAssay AID540256 (National Center for Advancing Translational Sciences (NCATS), 2011):
Values joined by “and” are separate entries in the source; they are usually repeats but may differ in a detail not shown here. Equal values may be shown once. The whole screen tested about 300,000 compounds, of which about 3,700 (1.2%) were called active. The shares of active, inactive and inconclusive entries below differ from those in the screen. Calls follow the shape of the full dose curve; tested in HEK293 cells. Potencies of inconclusive entries are doubtful fits and often do not repeat.

Assay: qHTS for Inhibitors of binding or entry into cells for Lassa Virus; also: nearly all actives have a fitted effect of over 50% in size
Settings: Lassa virus pseudotype entry inhibition, cell reporter; series mostly up to 37.9 µM
Potency is read from the fitted curve at half-maximal effect.

| SMILES | Potency |
| --- | --- |
| O=C(C1CCCN(C2CC(=O)N(c3ccc(F)cc3)C2=O)C1)N1CCCC1 (configuration not stated) | inconclusive: 5.01 µM [activator, single point] |
| Cc1[nH]nc(Sc2ccccn2)c1[N+](=O)[O-] | inconclusive: 2.82 µM [activator, single point] |
| O=C(OCc1cc(=O)n2nc(-c3cccs3)sc2n1)c1ccccc1Cl | inconclusive: 22.4 µM [activator, single point] |
| Cc1ccc(Cn2nc(C)c(NC(=O)c3noc4c3CCCCC4)c2C)cc1 | inconclusive: 3.66 µM [inhibitor, full curve, poor fit] |
| Cc1cc2ncn(C(=O)N3CCC(C)CC3)c2cc1C | inconclusive: 5.62 µM [activator, full curve, poor fit] |
| COc1ccc(NC(=O)c2cc3cc(C)ccc3[nH]2)cc1 | inactive |
| O=C(NCCc1ccccc1)Nc1ccc(Cl)cc1 | inactive |
| O=C(N/N=C/c1cccnc1)c1ccc(F)cc1 | inconclusive: 35.5 µM [activator, single point] |
| CCOC(=O)CC(NC(=O)c1cc2ccccc2oc1=O)c1cccc([N+](=O)[O-])c1 (configuration not stated) | inconclusive: 11.2 µM [activator, single point] |
| CCN(CC)C(=O)c1ccc(NC(=O)c2ccc(-c3nn(C)c(=O)c4ccccc34)cc2)cc1 | inactive |
| Cc1c(C(=O)NCC2COc3ccccc3O2)oc2ccc(S(=O)(=O)N3CCOCC3)cc12 (configuration not stated) | inconclusive: 13 µM [inhibitor, partial curve, poor fit] |
| Cc1ccc(NS(=O)(=O)c2ccc(NC(=O)CN(c3cc([N+](=O)[O-])ccc3C)S(C)(=O)=O)cc2)c(C)c1 | inconclusive: 10 µM [inhibitor, partial curve, poor fit] |
| CN(C)C(=O)c1ccc(NC(=O)COC(=O)/C=C/c2cccs2)cc1 | inconclusive: 35.5 µM [activator, single point] |
| Cc1cccc2nc(-c3ccccn3)c(Nc3ccc(F)cc3)n12 | inconclusive: 12.6 µM [inhibitor, single point] |
| CCCCOc1ccc(CSc2ncn[nH]2)cc1 | inconclusive: 0.501 µM [activator, full curve] |
| CCOc1ccc(-n2ccnc(SCC(=O)NC3CCCC3)c2=O)cc1 | inconclusive: 6.31 µM [inhibitor, single point] |
| COc1ccc(/C=N/NC(=O)CN(C2=NS(=O)(=O)c3ccccc32)c2ccccc2)cc1OC | inconclusive: 28.2 µM [inhibitor, single point] |
| O=C(Nc1cccc(F)c1)NC1CCCc2ccccc21 (configuration not stated) | inconclusive: 25.1 µM [inhibitor, partial curve, poor fit] |
| Cc1cc(C)cc(N2C(=O)CSC23C(=O)N(Cc2c(F)cccc2Cl)c2ccccc23)c1 (configuration not stated) | inconclusive: 22.4 µM [inhibitor, single point] |
| N#Cc1ccc(C(=O)NC2CCCCCCC2)cc1 | inconclusive: 6.31 µM [activator, single point] |
| O=C(O)c1ccccc1N1C(=O)c2cccc3cccc(c23)C1=O | inactive |
| Cc1cc2c(cc1S(=O)(=O)Nc1cccc(Cl)c1C)n(C)c(=O)c(=O)n2C | inconclusive: 3.55 µM [activator, full curve] |
| O=C(Nc1ccc(Cl)cn1)c1cccc(S(=O)(=O)N2CCCC2)c1 | inconclusive: 3.16 µM [inhibitor, single point] |

A few values from the list.
In Potency, Cc1c(C(=O)NCC2COc3ccccc3O2)oc2ccc(S(=O)(=O)N3CCOCC3)cc12 (configuration not stated) is listed with inconclusive: 13 µM [inhibitor, partial curve, poor fit]
In Potency, Cc1cc2c(cc1S(=O)(=O)Nc1cccc(Cl)c1C)n(C)c(=O)c(=O)n2C is listed with inconclusive: 3.55 µM [activator, full curve]
In Potency, Cc1cc(C)cc(N2C(=O)CSC23C(=O)N(Cc2c(F)cccc2Cl)c2ccccc23)c1 (configuration not stated) is listed with inconclusive: 22.4 µM [inhibitor, single point]
In Potency, O=C(O)c1ccccc1N1C(=O)c2cccc3cccc(c23)C1=O is listed with inactive

Carrying on:

| SMILES | Potency |
| --- | --- |
| CCCc1nc2cc(CC(=O)OC)ccc2o1 | inconclusive: 13 µM [activator, partial curve, poor fit] |
| COCCN(C(=O)c1ccco1)c1nnc(-c2ccc(F)cc2)s1 | inconclusive: 4.47 µM [activator, single point] |
| CN(Cc1cccc(Cl)c1Cl)C(=O)c1ccccc1SCC(=O)N1CCCC1 | inactive |
| COCCCn1c(=N)c(C(=O)NCC2CCCO2)cc2c(=O)n3cccc(C)c3nc21 (configuration not stated) | inactive |
| N/C(=N\OC(=O)CCCN1C(=O)c2ccccc2C1=O)c1ccccn1 | inconclusive: 3.55 µM [inhibitor, single point] |
| O=C(c1cc(-c2ccc(Cl)cc2Cl)on1)N1CCCC1 | active: 3.55 µM |
| CC(=O)N1CCN(c2ccccc2NC(=O)COc2cc(C)ccc2C(C)C)CC1 | inconclusive: 12.6 µM [inhibitor, single point] |
| O=C(CSc1nc(=O)n(CCN2CCOCC2)c2c1CCC2)Nc1ccc(Cl)c(Cl)c1 | inactive |
| O=C(Nc1ccc(F)c(Cl)c1)Nc1c[nH]c(=O)[nH]c1=O | inconclusive: 7.94 µM [activator, partial curve, poor fit] |
| Cc1ccc(C23CC4CC(CC(CN)(C4)C2)C3)cc1 | inconclusive: 17.8 µM [inhibitor, partial curve, poor fit] |
| CC1OC23CCCCC2C(C#N)(C(=N)O3)C1(C#N)C#N (configuration not stated) | inactive |
| Cc1ccc(CN(C)C2CCN(C)CC2)cc1 | inactive |
| CNS(=O)(=O)c1cn(CC(=O)N2CCN(c3ccc(C(C)=O)cc3)CC2)cc1S(=O)(=O)NC | inactive |
| Cc1ccc(S(=O)(=O)Nc2ccc(Cl)cc2C(=O)c2ccccc2)cc1 | inconclusive: 12.6 µM [inhibitor, partial curve, poor fit] |
| COCc1cc(C)n(CC(=O)Nc2ccccc2OC)c(=O)c1C#N | inconclusive: 29.1 µM [activator, single point] |
| CCc1nnc(NC(=O)c2ccc(COc3cccc(C)c3)o2)s1 | inconclusive: 22.4 µM [activator, single point] |
| O=C(Nc1ccc(Br)cc1)c1cnccn1 | inactive |
| CCOC(=O)C1=C(C)NC(C)=C(C(=O)OCC)C1C(=O)OCC(=O)NC(C)C | inconclusive: 22.4 µM [inhibitor, single point] and inconclusive: 3.16 µM [inhibitor, single point] |
| CCOC(=O)C(C)(C)N(Cc1ccc(Cl)cc1)S(=O)(=O)c1ccc(Cl)c([N+](=O)[O-])c1 | inconclusive: 29.1 µM [inhibitor, single point] |
| Cc1cc(Nc2ccc(F)cc2F)nc(-n2nc(C)cc2C)n1 | inactive |
| N#Cc1cn(-c2cccc(C(F)(F)F)c2)c(=O)[nH]c1=O | inconclusive: 2 µM [activator, full curve, poor fit] |
| CCC(=O)Oc1ccc(C(=O)Nc2ccc3c(c2)OCO3)cc1 | inconclusive: 17.8 µM [inhibitor, single point] |
| COc1cc2c(cc1OC)n(CC(=O)c1cc(C)ccc1C)c(=O)n1nc(CCn3nc(C)cc3C)nc21 | inactive |

| SMILES | Potency |
| --- | --- |
| CC1=C(C(=O)Nc2cccnc2)C(c2ccc(C)cc2)n2nc(SCc3ccccc3F)nc2N1 (configuration not stated) | inconclusive: 3.16 µM [activator, partial curve, poor fit] |
| O=C1CC(N2CCC(O)(c3ccc(Cl)cc3)CC2)C(=O)N1Cc1ccc(N2CCCC2=O)cc1 (configuration not stated) | inactive |
| COc1cccc(/C=C2\N=C(C3CCCCC3)OC2=O)c1OC | inconclusive: 1.26 µM [inhibitor, single point] |
| CCc1cccc(NC(=O)Cn2c3[n+](c4ccc(C(F)(F)F)cc42)CCCCC3)c1 | inactive |
| CSC(=S)N/N=C(\C)c1ccc(Br)cc1 | inactive |
| O=C(NNC(=O)c1ccc2c(c1)OCO2)NC1CCCCC1 | inactive |
| CC(C)C[C@H](NC(=O)NCc1ccc(Cl)cc1)C(=O)O | inactive |
| Cn1c(=O)c2cn(Cc3ccc(Cl)cc3)cc2n(C)c1=O | inactive |
| COc1cc(OC)c(OC)cc1CNCc1ccco1 | inconclusive: 2.51 µM [inhibitor, partial curve, poor fit] |
| Cc1cccc(CSc2nc3c([nH]c4ccccc43)c(=O)n2C)c1 | inconclusive: 1 µM [inhibitor, full curve, poor fit] |
| Cc1cc(C)n(-c2ccc(C(=O)Nc3ccccn3)cc2)n1 | inconclusive: 10.3 µM [inhibitor, partial curve, poor fit] |
| CCCCC(CC)CNC(=O)Cc1ccc(-n2c(=O)[nH]c3ccccc3c2=O)cc1 (configuration not stated) | inconclusive: 20 µM [inhibitor, partial curve, poor fit] |
| CCCCC12CN3CC(C)(CN(C1)C3c1c[nH]c3ccccc13)C2=O (configuration not stated) | inconclusive: 3.98 µM [inhibitor, full curve] |
| COc1cccc(C(=O)NCC(=O)OCC(=O)Nc2cc(OC)c([N+](=O)[O-])cc2C)c1 | inactive |
| CC(=O)NC(c1cccs1)c1cc([N+](=O)[O-])c2cccnc2c1O (configuration not stated) | inconclusive: 8.2 µM [inhibitor, partial curve] |
| Cc1ccccc1OCCC(=O)N1CCN(S(=O)(=O)c2ccc(Cl)cc2)CC1 | inconclusive: 2.82 µM [inhibitor, full curve] |
| O=C(Nc1ccc(S(=O)(=O)N2CCOCC2)cc1)c1ccc(CN2CCc3ccccc3C2)cc1 | active: 10 µM |
| O=C(O)C1CCC(N2C(=O)c3cccc([N+](=O)[O-])c3C2=O)CC1 (configuration not stated) | inconclusive: 0.794 µM [inhibitor, full curve, poor fit] |
| O=C1NC(=O)C(CCc2ccncc2)(CCc2ccncc2)C(=O)N1CCc1ccccc1 | inconclusive: 5.17 µM [inhibitor, partial curve] |
| O=C(C1=C[C@@H]2[C@H]3C(=O)N(c4ccccc4)C(=O)[C@H]3[C@@H](C(=O)c3ccc(Cl)cc3)N2C=C1)c1ccccc1 | inactive |
| O=C(CSc1ncnc2c1cnn2-c1ccc(Cl)cc1)NCc1ccc2c(c1)OCO2 | inconclusive: 7.08 µM [activator, full curve, poor fit] |
